According to PubChem BioAssay AID504467 (National Center for Advancing Translational Sciences (NCATS), 2011):
Hit rate of the full screen: of about 330,000 compounds, about 7,700 (2.3%) were called active. The shares of active, inactive and inconclusive entries below differ from those in the screen. Calls come from the whole dose curve; as a rule, active = well fitted inhibition curve with a large enough effect; inconclusive = small, poorly fitted or top-dose-only effect, or effect the other way; inactive = flat fitted curve, though single readings scatter. Potencies beside an inconclusive call are fits to weak or partial responses and may not hold up.

Assay: qHTS screen for small molecules that inhibit ELG1-dependent DNA repair in human embryonic kidney (HEK293T) cells expressing luciferase-tagged ELG1; note: nearly all actives have a fitted effect of over 55% in size
Settings: HEK293T ELG1-luciferase reporter, luminescence, 16 h, DNA damage induced by 5-fluorouridine; series mostly up to 46.1 µM
How it was run: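 Step one: seed 2,000 cells per well. Step two: pin-transfer compound or DMSO alongside 5-fluorouridine. Step three: incubate 16 hr, 37 °C, 5% CO2. Step four: add ONE-Glo, wait 30 min, read luminescence.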
Potency is the fitted concentration of half-maximal effect.

Structure (SMILES) | Potency
CCn1nc(C)c(/C=N/NC(=O)Cn2cncn2)c1C | inconclusive: 20.6 µM [inhibitor, single point]
Cn1c(=O)c2c(nc(SCc3nc(N)nc(N4CCCCC4)n3)n2C)n(C)c1=O | inconclusive: 16.4 µM [inhibitor, single point]
CCCCn1nc(C(=O)Nc2ccccc2N2CCCC2)c2ccccc2c1=O | inconclusive: 20.6 µM [inhibitor, partial curve]
C/C=C(/C)C(=O)OC1Cc2c(ccc3ccc(=O)oc23)OC1(C)C (stereo unspecified) | inconclusive: 29.1 µM [inhibitor, single point]
O=C(NCc1ccco1)c1cc(S(=O)(=O)N2CCOCC2)c(Cl)cc1Cl | inconclusive: 18.4 µM [inhibitor, partial curve, poor fit]
CS/C(=N\S(=O)(=O)c1cccs1)Nc1ccc(F)cc1 | inconclusive: 23.1 µM [activator, partial curve, poor fit]
O=C(COc1ncnc2ccccc12)Nc1cccc(S(=O)(=O)N2CCOCC2)c1 | inconclusive: 23.1 µM [inhibitor, partial curve, poor fit]
O=C(CCc1ccc(S(=O)(=O)NCCc2ccccc2)cc1)N1CCN(Cc2ccc3c(c2)OCO3)CC1 | active: 23.1 µM
CSc1ccccc1OCc1cc(C(=O)N(C)Cc2cnccn2)no1 | inconclusive: 23.1 µM [activator, partial curve]
O=C(COc1ncnc2cc([N+](=O)[O-])ccc12)NC(=O)NC1CCCCC1 | inconclusive: 9.2 µM [inhibitor, partial curve]
Cc1cc(NC(=O)/C(C#N)=C/c2ccc(-c3ccc(SC(F)F)cc3)o2)n(-c2ccccc2)n1 | inactive
Nc1nonc1C(=O)N/N=C/c1ccc(-c2cccc(C(=O)O)c2)o1 | inconclusive: 29.1 µM [activator, single point]
CN1CCN(CC(=O)Nc2nc3ccccc3s2)CC1 | inconclusive: 25.9 µM [activator, single point]
Cc1nc(-c2ccc(Br)cc2)ccc1C(=O)O | inactive
Cc1cc([N+](=O)[O-])ccc1NC(=O)c1cncc(Br)c1 | inconclusive: 29.1 µM [inhibitor, single point]
CCc1nc2ccccc2c(C(=O)Oc2ccc(C(=O)OC)cc2)c1C | inconclusive: 14.6 µM [activator, partial curve, poor fit]
COc1ccc(/C=N/N2CCN(c3ccccc3OC)CC2)cc1Br | inconclusive: 31.6 µM [activator, single point]
CCCN(Cc1ccc(N(C)C)cc1)CC1CC1 | inactive
CN1C(=O)/C(=C/c2ccc(OCc3ccccc3F)cc2)N(C)C1=S | inconclusive: 35.5 µM [activator, single point]
O=C(Nc1ccc2ccccc2c1)C(=O)C1C(=O)Nc2ccccc21 (stereo unspecified) | inconclusive: 6.51 µM [activator, partial curve, poor fit]
CCOC(=O)CSc1cccc2cccnc12 | inconclusive: 18.4 µM [activator, single point]

Structure (SMILES) | Potency
c1ccc(Oc2nc(-c3ccccn3)nc3ccccc23)cc1 | inconclusive: 18.3 µM [inhibitor, single point]
Cc1nc2cc(NC(=O)C3COc4ccccc4O3)ccc2s1 (stereo unspecified) | inconclusive: 13 µM [activator, partial curve]
Cc1nn(Cc2ccccc2)c(Cl)c1C(=O)OCc1nnc(-c2ccc(Cl)cc2)o1 | inactive
Cc1c(OC(C)C(=O)NCc2ccncc2)ccc2c3c(c(=O)oc12)CCCC3 (stereo unspecified) | inconclusive: 32.6 µM [inhibitor, single point]
O=C(Nc1cccc(Cl)c1)OCc1ccccn1 | inconclusive: 13 µM [activator, partial curve]
COc1cccc(C(C)NC(=S)NCc2ccc(Cl)cc2)c1 (stereo unspecified) | inconclusive: 29.1 µM [inhibitor, single point]
S=C(NCCc1ccccc1)Nc1ccc(Cl)cc1 | inconclusive: 20.6 µM [activator, partial curve]
COc1ccc(/C=C/C(=O)N(Cc2ccccc2)c2ccccn2)cc1OC | inconclusive: 16.4 µM [inhibitor, partial curve, poor fit]
Cc1ccccc1/C=C\c1nc2ccccc2c(=O)[nH]1 | inconclusive: 4.61 µM [activator, full curve]
COC(=O)C1=C(NC(=O)c2cccs2)CCS1 | inconclusive: 18.4 µM [activator, single point]
COc1cccc(N2CCN(c3nc(C)cc(C)c3C#N)CC2)c1 | inconclusive: 13 µM [inhibitor, single point]
NC(=O)COC(=O)c1ccc(Cl)c(S(=O)(=O)N2CCCCCC2)c1 | inconclusive: 29.1 µM [inhibitor, partial curve, poor fit]
Cc1nn(-c2ccccc2)c2c1C(c1ccc([N+](=O)[O-])cc1)N1C(=N2)C(=O)Nc2ccccc21 (stereo unspecified) | active: 23.1 µM
CC1=C(C(=O)Nc2ccccc2)C(c2ccc(Cl)cc2)n2c(s/c(=C/c3cccc(OCC(=O)O)c3)c2=O)=N1 (stereo unspecified) | inconclusive: 29.1 µM [inhibitor, partial curve, poor fit]
Cc1ccc(S(=O)(=O)CC(=O)N2CCN(c3cccc(C(F)(F)F)c3)CC2)cc1 | inactive
O=C(COC(=O)c1ccccc1[N+](=O)[O-])c1ccc(C2CCCCC2)cc1 | inconclusive: 23.1 µM [activator, partial curve]
Cn1c(/C=C/c2ccc(Cl)cc2Cl)c([N+](=O)[O-])c(=O)n(C)c1=O | inconclusive: 23.1 µM [inhibitor, single point]
O=C(/C=C/c1cccc([N+](=O)[O-])c1)NCCN1C(=O)S/C(=C\c2ccc(F)cc2)C1=O | inconclusive: 5.8 µM [activator, partial curve, poor fit]
Cc1ccc2cn[nH]c2c1NC(=S)NC(=O)c1ccccc1 | inactive
Cc1ccc(/C=N/NS(=O)(=O)c2ccc([N+](=O)[O-])cc2)o1 | inconclusive: 9.2 µM [activator, partial curve]

Sorted by molecular weight (falling): part of the list above
Structure (SMILES) | Potency
O=C(COc1ncnc2ccccc12)Nc1cccc(S(=O)(=O)N2CCOCC2)c1 | inconclusive: 23.1 µM [inhibitor, partial curve, poor fit]
CSc1ccccc1OCc1cc(C(=O)N(C)Cc2cnccn2)no1 | inconclusive: 23.1 µM [activator, partial curve]
Cc1cc([N+](=O)[O-])ccc1NC(=O)c1cncc(Br)c1 | inconclusive: 29.1 µM [inhibitor, single point]
